Laboratory results as given in paper PMC4330390 (Nucleic Acids Research, 2015).
Substitutions are numbered along the chain they refer to. No constants are given. Whether binding was seen depends on the method and setting. Some entries that bind do so weakly or less than the wild type.

Key:
[1] = molecular target: T1, NXF1^ΔNΔUBA (Homo sapiens NXF1 residues 96-555) (human) (UniProt Q9UBU9); test: crystal structure; crystals of the purified NXF1^ΔNΔUBA:NXT1 complex, 18°C, 9% PEG 6000, 1 M LiCl, 0.1 M Na citrate pH 5.1; P1, 3.4 Å, two copies of the complex in the asymmetric unit; both purified
T1 sequence: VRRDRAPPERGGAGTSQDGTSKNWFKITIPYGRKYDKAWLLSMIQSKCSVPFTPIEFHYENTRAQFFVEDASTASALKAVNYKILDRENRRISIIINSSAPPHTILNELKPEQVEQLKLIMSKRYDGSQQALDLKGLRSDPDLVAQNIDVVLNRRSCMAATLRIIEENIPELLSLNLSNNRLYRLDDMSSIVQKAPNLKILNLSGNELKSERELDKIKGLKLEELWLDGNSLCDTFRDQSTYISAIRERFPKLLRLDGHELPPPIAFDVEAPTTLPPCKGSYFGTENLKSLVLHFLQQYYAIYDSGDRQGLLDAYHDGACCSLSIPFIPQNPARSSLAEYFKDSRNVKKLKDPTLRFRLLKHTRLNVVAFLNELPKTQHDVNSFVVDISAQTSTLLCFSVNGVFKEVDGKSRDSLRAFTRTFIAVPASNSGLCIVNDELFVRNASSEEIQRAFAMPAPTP

[2] = molecular target: T2, NXF1^ΔNΔUBA+3A (Ile360 + Phe362 + Val364 to alanine) (human) (UniProt Q9UBU9); test: co-purification of co-expressed proteins; NXF1 constructs (wild type and mutants) made in E. coli with NXT1 and purified; NXT1 found with the purified NXF1
T2 sequence: T1 sequence with I265A, F267A, V269A

[3] = molecular target: T1, NXF1^ΔNΔUBA (Homo sapiens NXF1 residues 96-555) (human); test: as above

binding [1]: binds
binding [2]: binds
binding [3]: binds
B1: H. sapiens NXT1 (protein, UniProt Q9UKK6 2-140)
chain: ASVDFKTYVDQACRAAEEFVNVYYTTMDKRRRLLSRLYMGTATLVWNGNAVSGQESLSEFFEMLPSSEFQISVVDCQPVHDEATPSQTTVLVVICGSVKFEGNKQRDFNQNFILTAQASPSNTVWKIASDCFRFQDWAS
